# Primary screen of a compound library

Each number is a percent effect as filed. The controls that fix the scale are not given in the record; negative values are as filed. This is an unselected part of the compounds tested.

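Assay of Toxoplasma gondii numbers, read through their beta-galactosidase reporter with a colour substrate. Tested at 50 µM. Higher reads as fewer parasites (inferred from which compounds were picked for retests). About 18,000 compounds were tested under these conditions; 0.94% (about 170) showed 50% or more at least once.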

structure | percent effect
CC(=O)NCc1ccc(C(C)=O)s1 | 3.848
COC(C)C(=O)N(C)c1ncc(Cl)cc1Cl (stereo not shown) | -2.565
Cn1cncc1CCNC(=O)C1CCCCO1 (stereo not shown) | -0.7943
COc1ncccc1-c1ccc(S(N)(=O)=O)s1 | 11.26
Cc1ccnc(NC(=O)CC(C)C)n1 | -2.697
CC(C)c1ccc(NC(=O)CN)cc1 | 7.531
O=C(CCc1ccccn1)Nc1ccc2[nH]nnc2c1 | -22.2
Cn1ccnc1CSc1ncnn1C | 3.679
Cc1ccc(CNC(=O)NCCO)cc1 | 3.708
CC(=O)NCC1CN(CC2CC2)CCO1 (stereo not shown) | 17.78
c1cnn(CCN2CCCC2Cn2cccn2)c1 (stereo not shown) | 5.831
NCCCn1nc2n(c1=O)CCCC2 | -13.54
CCOc1ncccc1NC(=O)N1CCNC(=O)C1 | -4.838
NCC1CCCCN(Cc2ccccc2)C1 (stereo not shown) | 2.63
COCC(C)NC(=O)c1cccnc1OCC(F)(F)F (stereo not shown) | 6.022
Cc1cccc(=O)n1CCC(=O)N1CCOCC(O)C1 (stereo not shown) | 13.3
c1ccc(N2CCCC2)nc1 | -4.186
CC(C#N)Sc1nnnn1Cc1cccs1 (stereo not shown) | -0.8097
CCC[C@H]1CN(C(=O)Cc2cccc(OC)c2)C[C@@H]1N | 16.45
Cn1c(SCC(=O)NC(N)=O)nnc1C(F)(F)F | 1.215
CCN1CCN(c2cc(C)nc3ncnn23)CC1 | -0.9757
CCS(=O)(=O)c1ncc(CO)n1CCc1ccccc1 | 2.621
CCCN1CCN(C(=O)COc2ccccc2)CC1 | 16.15
CCn1ccc(C(=O)NCCc2noc(COC)n2)n1 | -2.705
COc1ccc(CCS(C)(=O)=O)cc1 | -9.739
Cc1cccc(CN(CCO)Cc2nccn2C)n1 | 18.88
CC(C(=O)Nc1ccccn1)n1cccn1 (stereo not shown) | -2.411
COc1cccc(SCC(=O)N(C)[C@H]2COC[C@@H]2O)c1 | -10.32
COc1ccc(N(C)CCCO)cc1OC | 0.3577
Cc1cccc(C(=O)N(C)C)c1C | 33.49
CC(C)NC(C1CCNCC1)[C@H]1C[C@H](O)C1 (stereo partly shown) | 23.17
NC(=O)Cc1csc(-c2ccco2)n1 | -2.88
CC(N)c1noc(-c2ccccc2)n1 (stereo not shown) | -3.415
COc1ccc(NC(=O)NC(C)Cn2ccnc2)cn1 (stereo not shown) | -4.735
OC1(CN2CCCCC2)CCN(Cc2c[nH]cn2)C1 (stereo not shown) | 5.615
CCO[C@@H]1CN(Cc2ccccc2)C[C@H]1CN | -17.52
CCc1noc(CNC)n1 | -8.602
Cc1cc(N)nn1-c1cccc(F)c1 | -8.816
CN(C)c1ncc(CNC(=O)C2(C)CCC2)n1C | 10.06
CC(C)CN(C)CCCN | 31.33
COCCC1(C(=O)NCc2cc(Cl)ccn2)CC1 | 0.6774
CCC(N)(CC)CNS(=O)(=O)N(C)C1CCCCC1 | -3.514
CC(N)c1nnc(-c2ccccc2F)s1 (stereo not shown) | 15.32
CS(=O)(=O)CCN1C[C@H](c2ccccc2)[C@@H](N)C1 | -9.052
CN1CC(NC(=O)CCOc2ccc(Cl)cc2)CC1=O (stereo not shown) | -20.36
CCC(NC(=O)c1cnc(O)cn1)c1nc(C)c(C)s1 (stereo not shown) | -1.491
NCC(CO)Cc1ccsc1 (stereo not shown) | -1.079
C[C@@H]1CN(Cc2ccccc2)C[C@@H](C)C1=O | 0.567
CC(C)OC(C)C(=O)NCCNc1cccnc1 (stereo not shown) | -5.389
COC(=O)[C@@H]1C[C@@H](O)CN1CCc1ccccn1 | -0.07526
CC1CCCCN1Cc1nc(-c2ccccn2)no1 (stereo not shown) | -16.91
Cc1ccccc1C1CNCCO1 (stereo not shown) | -10.92
CCn1ncnc1C(C)NC(=O)CN1CCCC1 (stereo not shown) | -17.92
CCN1CCc2ccc(NS(=O)(=O)CC)cc21 | 14.08
NC(=O)C(NC(=O)c1sccc1Br)c1ccccc1 (stereo not shown) | 8.613
CSCC1CCN(CCC(=O)Nc2cccnc2)CC1 | 1.593
CCc1ccccc1-n1c(CNC)n[nH]c1=O | 9.34

The last 5 entries again:

- CCn1ncnc1C(C)NC(=O)CN1CCCC1 (stereo not shown) | -17.92%
- CCN1CCc2ccc(NS(=O)(=O)CC)cc21 | 14.08%
- NC(=O)C(NC(=O)c1sccc1Br)c1ccccc1 (stereo not shown) | 8.613%
- CSCC1CCN(CCC(=O)Nc2cccnc2)CC1 | 1.593%
- CCc1ccccc1-n1c(CNC)n[nH]c1=O | 9.34%

The values are deposited in ChEMBL (CHEMBL3988442, “University of Dundee, Small-Polar-MMV Screening Library” (2021)).